Experimental data: patent US20060116505A1, “Glucose and/or fructose transporter naglt1 and its gene” (priority 2002, published 2006)
At least one structure is not confirmed: it was looked up by name or label, or the drawing left a doubt.

What was measured:
[1] = system: renal brush border membrane vesicles; test: Na+-dependent uptake of [14C] fructose by renal brush border membrane vesicles; type: biochemical, rat; conditions: [14C] fructose 2 mM, 15 seconds at 25° C., glucose analog 30 mM, phloridzin or phloretin 50 μM
NaGLT1 = target: T1, NaGLT1 (Rattus norvegicus, UniProt Q80T22, M166I/S3F); test: Effect of inhibitors on uptake of [14C]-labeled αMeGlc by NaGLT1-expressing oocytes; type: cell-based
T1 construct: expressed in transfected cells; host or cells: Xenopus oocytes injected with NaGLT1 RNA synthesized in vitro
T1 sequence (Q80T22 1-484 S3F/M166I): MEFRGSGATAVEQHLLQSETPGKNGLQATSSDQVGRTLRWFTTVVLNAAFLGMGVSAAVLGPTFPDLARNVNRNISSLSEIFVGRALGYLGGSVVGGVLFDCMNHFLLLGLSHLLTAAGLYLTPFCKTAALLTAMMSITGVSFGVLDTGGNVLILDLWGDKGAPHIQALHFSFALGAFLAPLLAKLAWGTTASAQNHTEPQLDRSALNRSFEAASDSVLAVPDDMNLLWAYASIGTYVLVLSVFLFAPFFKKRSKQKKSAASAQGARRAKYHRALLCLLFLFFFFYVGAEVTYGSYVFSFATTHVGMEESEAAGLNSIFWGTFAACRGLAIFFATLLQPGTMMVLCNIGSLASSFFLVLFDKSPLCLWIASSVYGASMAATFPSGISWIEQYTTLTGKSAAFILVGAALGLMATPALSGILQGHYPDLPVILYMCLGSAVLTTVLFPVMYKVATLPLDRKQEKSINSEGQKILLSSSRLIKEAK
Experimental: Uptake activity of NaGLT1 cRNA-injected cell and water-injected oocyte to [U-^14C]-α-methyl-D-glucopyranoside (α-MeGlc), D-[1-^14C] galactose, D-[U-^14C] mannose, D-[U-^14C] fructose, [1,2-^3H]-2-deoxy-glucose, D-[1-^3H] mannitol, [U-^14C] sucrose was measured. At that time, incubation was conducted in a buffer solution comprising 96 mM NaCl, 2 mM KCl, 1.8 mM CaCl2, 1 mM MgCl2, 5 mM HEPES (pH 7.4). Further, when extracellular Na^+ concentration dependency was conducted, the concentration of NaCl was adjusted to be within the range of 9.6 to 96 mM, and the final osmotic pressure was kept constant by making up for the shortage to 96 mM with choline chloride (FIGS. 6 and 7).

rNaGLT1 = target: T2, rNaGLT1 (Rattus norvegicus, UniProt Q80T22, M166I/S3F); test: Uptake of [14C] fructose by HEK293 cells transfected with rNaGLT1; type: cell-based; conditions: [14C] fructose 0.1 mM, 15 minutes at 37° C.; glucose analog 30 mM, phloridzin or phloretin 50 μM; vector uptake deducted
T2 construct: expressed in transfected cells; host or cells: HEK293 cells, transient transfection, assayed 2 days later
T2 sequence (Q80T22 1-484 S3F/M166I): T1 sequence (Q80T22 1-484 S3F/M166I)

`O=C(CCc1ccc(O)cc1)c1c(O)cc(O)cc1O[C@@H]1O[C@H](CO)[C@@H](O)[C@H](O)[C@H]1O` [Phloridzin, phloridzin] was tested, and the “Na+-dependent uptake of [14C] fructose by renal brush border membrane vesicles, % of control” value [1] was 6 % of control, the “Na+-dependent uptake of [14C] fructose by renal brush border membrane vesicles” value ([1]; KCl uptake deducted) was 3.2 ± 0.8 Pmol/mg protein/sec and the “effect on the uptake of [14C]-labeled αMeGlc” value (NaGLT1) was “extremely strong inhibitory effect”. For the same compound, the “Uptake of [14C] fructose by HEK293 cells expressing rNaGLT1” value (rNaGLT1) was 0.34 ± 0.11 Pmol/mg protein/min.
